Measured data: PubChem BioAssay AID1259279 (Sanger Institute, 2017)
Purpose: 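Find kinases whose loss works with colorectal cancer drugs to kill cells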 (primary screen). System: LS180 human colorectal cancer cells. Reagent: siRNA pool against human genes. Treatment: anchor drug BYL719 at 1 µM, cetuximab at 5 µg/ml or trametinib at 10 nM, or DMSO vehicle only. Measurement: 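Cell viability versus a non-targeting pool, as a fraction and as a robust z-score from replicate means, plus a synergy score for each of three drugs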. Scale: viability z-score, no drug: higher = more viable cells after knock-down; viability, no drug: higher = more viable cells; synergy score with BYL719 and synergy score with cetuximab: higher = stronger synthetic lethal synergy with drug. Rule for the call: 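Essential (active) calls need a no-drug viability z-score lower than -3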. Calls: active = essential (knock-down alone cuts viability); inactive = no change without drug.
In all, the deposit lists 794 reagents; shown is a random part of them. 11 of all reagents (1.4%) were called active. 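Calls reflect knock-down alone in the vehicle arm, not drug synergy.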 No viability above 1 is reported: the scale is capped. Further read-outs or replicates are left out here. No sequences are given here. Not stated in the record: the amount of reagent, the time to read-out.

target gene	viability z-score, no drug	viability, no drug (fraction)	synergy score with BYL719	synergy score with cetuximab	call
MAPK1	-1.17	0.778	0.0569	-0.0167	inactive
CDK9	0.86	1	-0.0593	0.0238	inactive
DLG2	0.86	1	-0.155	-0.121	inactive
PLK1	-3.76	0.496	0.0371	0.0099	active
DGKB	-2.21	0.665	0.0223	-0.0119	inactive
FGFR1	-0.797	0.819	-0.0337	-0.171	inactive
FXR1	0.86	1	-0.119	-0.111	inactive
LIMK2	0.774	0.991	-0.0715	-0.167	inactive
OBSCN	0.557	0.967	-0.137	-0.0474	inactive
UCKL1	0.86	1	0.0559	-0.0847	inactive
NIM1K	0.86	1	-0.116	-0.0959	inactive
HIPK1	0.818	0.995	-0.0522	-0.17	inactive
ROS1	0.53	0.964	-0.00296	-0.196	inactive
CHKA	-2.2	0.667	-0.102	-0.0328	inactive
PI4KB	0.86	1	0.0637	0.00707	inactive
PMVK	-0.0216	0.904	0.0192	-0.127	inactive
BCR	-0.446	0.858	-0.187	-0.15	inactive
PGK1	0.86	1	-0.0171	-0.0538	inactive
CMPK1	0.0418	0.911	-0.186	-0.159	inactive
GATA3	-0.186	0.886	-0.0419	0.0202	inactive
LMBR1	0.86	1	-0.131	-0.166	inactive
STRADB	0.86	1	-0.174	0.0212	inactive
RIPK1	0.86	1	0.00347	-0.127	inactive
CHEK2	0.86	1	0.037	-0.0465	inactive
PKIB	-0.176	0.887	-0.112	-0.205	inactive
LIMK1	0.171	0.925	-0.11	-0.177	inactive
PTPN11	0.518	0.963	-0.077	-0.197	inactive
SMAD4	0.647	0.977	-0.0124	0.0139	inactive
MAP2K4	0.0407	0.911	-0.0971	-0.24	inactive
PBK	-0.407	0.862	-0.242	-0.195	inactive
STK10	0.86	1	-0.201	-0.0515	inactive
PRKAR1B	-2.22	0.664	-0.217	-0.154	inactive
STK11	0.86	1	-0.137	-0.154	inactive
SOS2	-1.42	0.752	-0.29	-0.291	inactive

Looked up above.
FXR1, viability z-score, no drug = 0.86
Entry for FGFR1 in “synergy score with BYL719”: -0.0337
For “synergy score with cetuximab”, LIMK2 is entered as -0.167
